Test results reported in article PMC10182284, “Rotary properties of hybrid F1-ATPases consisting of subunits from different species” (iScience, 2023).
Results are given in words; binding and its absence hold for the method and conditions named. Some binding calls cover weakened binding; strength is not graded here.

Sequences of proteins named here, by UniProt entry; tags and fusion partners are left off. Residues count along the entry.
UniProt P09219: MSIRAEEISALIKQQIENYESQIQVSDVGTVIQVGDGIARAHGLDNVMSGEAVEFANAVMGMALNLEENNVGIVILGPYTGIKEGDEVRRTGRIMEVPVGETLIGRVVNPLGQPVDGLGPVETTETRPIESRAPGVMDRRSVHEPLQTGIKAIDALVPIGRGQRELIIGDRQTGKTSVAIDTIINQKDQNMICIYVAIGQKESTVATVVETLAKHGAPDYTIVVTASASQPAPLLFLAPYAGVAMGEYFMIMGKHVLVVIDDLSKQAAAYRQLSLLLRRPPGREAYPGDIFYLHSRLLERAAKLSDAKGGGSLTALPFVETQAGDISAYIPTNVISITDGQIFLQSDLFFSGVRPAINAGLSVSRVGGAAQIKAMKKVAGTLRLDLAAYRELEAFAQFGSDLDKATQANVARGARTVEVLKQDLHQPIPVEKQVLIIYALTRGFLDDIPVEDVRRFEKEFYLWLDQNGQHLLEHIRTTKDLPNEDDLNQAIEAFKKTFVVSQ
UniProt A1B8N8: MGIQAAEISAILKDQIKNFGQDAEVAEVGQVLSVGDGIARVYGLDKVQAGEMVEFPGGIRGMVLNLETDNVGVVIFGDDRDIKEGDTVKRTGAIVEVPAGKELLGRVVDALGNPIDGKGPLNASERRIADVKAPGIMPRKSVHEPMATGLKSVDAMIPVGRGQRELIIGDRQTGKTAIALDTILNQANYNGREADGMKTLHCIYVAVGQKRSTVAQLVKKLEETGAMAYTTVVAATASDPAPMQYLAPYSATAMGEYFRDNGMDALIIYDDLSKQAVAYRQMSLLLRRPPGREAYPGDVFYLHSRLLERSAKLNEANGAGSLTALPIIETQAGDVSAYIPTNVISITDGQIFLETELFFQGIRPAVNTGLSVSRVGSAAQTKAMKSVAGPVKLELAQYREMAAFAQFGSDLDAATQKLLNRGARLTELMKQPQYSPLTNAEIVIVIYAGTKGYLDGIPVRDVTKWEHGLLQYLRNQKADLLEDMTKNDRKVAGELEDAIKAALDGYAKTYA
UniProt P00829, residues 47-528: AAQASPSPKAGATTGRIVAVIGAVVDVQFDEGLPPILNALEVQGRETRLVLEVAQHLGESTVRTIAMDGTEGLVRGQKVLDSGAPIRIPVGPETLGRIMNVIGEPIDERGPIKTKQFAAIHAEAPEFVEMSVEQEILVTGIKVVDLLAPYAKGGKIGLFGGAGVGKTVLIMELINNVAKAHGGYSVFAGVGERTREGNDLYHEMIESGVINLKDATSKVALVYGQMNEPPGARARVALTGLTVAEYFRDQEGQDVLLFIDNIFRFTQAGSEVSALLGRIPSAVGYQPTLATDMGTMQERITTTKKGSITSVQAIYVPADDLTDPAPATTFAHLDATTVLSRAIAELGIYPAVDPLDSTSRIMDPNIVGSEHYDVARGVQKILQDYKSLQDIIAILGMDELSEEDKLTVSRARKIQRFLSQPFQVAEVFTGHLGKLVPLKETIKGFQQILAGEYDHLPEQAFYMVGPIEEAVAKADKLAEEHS

Columns and labels:
Assay in all cases: co-expression and co-purification, SDS-PAGE; subunits co-expressed from one plasmid in E. coli; F1 complex purified as for bMF1 (ref. 26) or PdF1 (ref. 27); conformation of α3β3γ1 confirmed with SDS-PAGE
[1] = target: α subunit of F1-ATPase from thermophilic Bacillus PS3 (TF1) (thermophilic Bacillus PS3) (UniProt P09219)
[2] = target: α subunit of F1-ATPase from Paracoccus denitrificans (PdF1) (Paracoccus denitrificans) (UniProt A1B8N8)
[3] = target: β subunit of bovine mitochondrial F1-ATPase (bMF1) (bovine) (UniProt P00829)
[4] = target: T1, γ subunit of F1-ATPase from Paracoccus denitrificans (PdF1), γQ115C, γD214C (Paracoccus denitrificans) (UniProt A1B8N9)
T1 sequence: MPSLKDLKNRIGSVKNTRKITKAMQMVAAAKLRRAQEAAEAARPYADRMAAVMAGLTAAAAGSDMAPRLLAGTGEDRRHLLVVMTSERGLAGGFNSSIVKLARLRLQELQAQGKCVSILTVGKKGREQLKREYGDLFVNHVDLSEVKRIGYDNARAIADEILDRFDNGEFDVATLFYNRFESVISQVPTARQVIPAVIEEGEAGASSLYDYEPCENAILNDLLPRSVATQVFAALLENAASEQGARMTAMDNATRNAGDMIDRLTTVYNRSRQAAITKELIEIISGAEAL

B1: γ subunit of bovine mitochondrial F1-ATPase (bMF1), γA99C, γS191C (protein, UniProt P05631 26-298)
chain: ATLKDITRRLKSIKNIQKITKSMKMVAAAKYARAERELKPARVYGVGSLALYEKADIKTPEDKKKHLIIGVSSDRGLCGAIHSSVAKQMKSEAANLAACGKEVKIIGVGDKIRSILHRTHSDQFLVTFKEVGRRPPTFGDASVIALELLNSGYEFDEGSIIFNRFRSVISYKTEEKPIFSLDTISSAESMCIYDDIDADVLRNYQEYSLANIIYYSLKESTTSEQSARMTAMDNASKNASEMIDKLTLTFNRTRQAVITKELIEIISGAAALD
binding [1]: binds

B2: γ subunit of F1-ATPase from Paracoccus denitrificans (PdF1), γQ115C, γD214C (protein, UniProt A1B8N9 1-290)
chain: T1 sequence
binding [2]: binds | binding [3]: binds

B3: ε subunit of F1-ATPase from Paracoccus denitrificans (PdF1) (protein, UniProt A1B8P1 1-148)
chain: MADTMQFDLVSPERNLVSVPVREVRLPGADGDLTAMPGHAPAIVNLRPGLVTVVAGDGSETEFAVTGGFAEINNESVTLLAERGHPRAEMTQEVFNEMMAQARRRVEAAKERESAGEELVAAAVKLLADMEALGTHIGLDPNHANFPH
binding [4]: binds

B4: δ subunit of F1-ATPase from Paracoccus denitrificans (PdF1) (protein, UniProt A1B8N7 1-188)
chain: MTVANSASISADIAGRYAQALFDLVRDSGGIDALSSQIDDLASAYDASQDLRDLTLSPLYDRQQQEAAVGALSERMGLSAELANTLRLLARNRRLFTLPQFVAKLRNLIADAKGEVTADVVSAQALTDEQKARLADTLAAKSGKTVKLNARVDESLIGGMIVKLGSQMIDSSIRSKLASLQNAMKEVG
binding [4]: binds
